Results: article PMC4937315

Amino acid sequences for entries named in this document (tags omitted). A change or cut given only in a name is not applied to a line headed by its entry.
UniProt Q17740: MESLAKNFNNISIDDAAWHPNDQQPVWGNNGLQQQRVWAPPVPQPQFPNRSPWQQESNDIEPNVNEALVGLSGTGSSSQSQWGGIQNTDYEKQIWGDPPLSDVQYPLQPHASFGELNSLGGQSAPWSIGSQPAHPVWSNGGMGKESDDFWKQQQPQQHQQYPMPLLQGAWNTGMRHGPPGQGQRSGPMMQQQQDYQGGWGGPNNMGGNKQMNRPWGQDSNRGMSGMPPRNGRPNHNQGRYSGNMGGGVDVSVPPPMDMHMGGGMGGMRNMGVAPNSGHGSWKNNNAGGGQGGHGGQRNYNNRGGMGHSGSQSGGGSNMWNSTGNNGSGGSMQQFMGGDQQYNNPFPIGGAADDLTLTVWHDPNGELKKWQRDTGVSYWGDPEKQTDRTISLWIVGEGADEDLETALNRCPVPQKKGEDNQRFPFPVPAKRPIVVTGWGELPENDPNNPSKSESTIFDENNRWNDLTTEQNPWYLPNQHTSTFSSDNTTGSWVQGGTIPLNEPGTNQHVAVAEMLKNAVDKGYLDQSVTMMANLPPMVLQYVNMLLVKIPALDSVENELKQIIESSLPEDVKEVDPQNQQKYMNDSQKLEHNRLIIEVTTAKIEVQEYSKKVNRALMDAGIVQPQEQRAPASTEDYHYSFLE

Assays:
[1] = target: T1, PAB-1 (C. elegans cytoplasmic poly(A)-binding protein 1) (C. elegans (endogenous in embryos)) (UniProt Q9U302); test: pull-down; proteins of pab-2(ok1851) embryonic S10 lysate (no PAB-2) co-purified with PAB-1, which was pulled down through its ligand GST-PAIP2 on Glutathione-Sepharose beads; 0.1 ng/µl RNase A; western blot
T1 sequence: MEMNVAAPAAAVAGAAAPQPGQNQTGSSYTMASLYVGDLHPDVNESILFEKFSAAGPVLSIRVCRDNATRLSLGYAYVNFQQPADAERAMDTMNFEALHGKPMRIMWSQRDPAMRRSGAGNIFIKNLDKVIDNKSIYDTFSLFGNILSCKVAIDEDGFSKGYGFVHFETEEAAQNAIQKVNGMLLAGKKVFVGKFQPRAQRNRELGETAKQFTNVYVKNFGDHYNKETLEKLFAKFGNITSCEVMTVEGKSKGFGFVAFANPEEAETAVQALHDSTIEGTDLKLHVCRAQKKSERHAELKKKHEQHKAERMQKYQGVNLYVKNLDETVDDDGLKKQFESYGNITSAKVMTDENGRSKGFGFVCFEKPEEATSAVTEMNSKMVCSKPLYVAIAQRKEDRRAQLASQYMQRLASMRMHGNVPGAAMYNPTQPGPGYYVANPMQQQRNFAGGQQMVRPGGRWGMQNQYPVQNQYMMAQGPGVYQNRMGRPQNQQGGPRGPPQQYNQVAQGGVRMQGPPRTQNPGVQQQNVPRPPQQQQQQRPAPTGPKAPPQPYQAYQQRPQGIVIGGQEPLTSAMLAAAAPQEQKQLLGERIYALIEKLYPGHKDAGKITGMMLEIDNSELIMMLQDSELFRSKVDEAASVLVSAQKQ

[2] = target: T1, PAB-1 (C. elegans cytoplasmic poly(A)-binding protein 1) (C. elegans (endogenous in embryos)); test: pull-down; proteins of WT (N2) embryonic S10 lysate co-purified with PAB-1/PAB-2, which were pulled down through their ligand GST-PAIP2 on Glutathione-Sepharose beads; 1 h at 4°C; 0.1 ng/µl RNase A; western blot; RNase A or MNase treatment did not impinge on co-purification

| binding [1] | binding [2] | Substance |
| --- | --- | --- |
| binds | – | AIN-1 (C. elegans homolog of GW182) (from UniProt Q17740) |
| – | binds | IFG-1 (eIF4G homolog) (C. elegans (endogenous in embryos)) |

Results are given in words; binding and its absence hold for the method and conditions named. In cells and extracts the contact can be indirect. Binding can be weak; no strength is given.
